The term pEC50 denotes the negative decadic logarithm of the EC50, by convention in mol/L. High values mean a low EC50, low ones a high EC50.

pEC50: −log10 of the molar value.

For the assay, the target named is T1, Aromatase (Rattus norvegicus, UniProt P22443).
T1 sequence (P22443 whole entry): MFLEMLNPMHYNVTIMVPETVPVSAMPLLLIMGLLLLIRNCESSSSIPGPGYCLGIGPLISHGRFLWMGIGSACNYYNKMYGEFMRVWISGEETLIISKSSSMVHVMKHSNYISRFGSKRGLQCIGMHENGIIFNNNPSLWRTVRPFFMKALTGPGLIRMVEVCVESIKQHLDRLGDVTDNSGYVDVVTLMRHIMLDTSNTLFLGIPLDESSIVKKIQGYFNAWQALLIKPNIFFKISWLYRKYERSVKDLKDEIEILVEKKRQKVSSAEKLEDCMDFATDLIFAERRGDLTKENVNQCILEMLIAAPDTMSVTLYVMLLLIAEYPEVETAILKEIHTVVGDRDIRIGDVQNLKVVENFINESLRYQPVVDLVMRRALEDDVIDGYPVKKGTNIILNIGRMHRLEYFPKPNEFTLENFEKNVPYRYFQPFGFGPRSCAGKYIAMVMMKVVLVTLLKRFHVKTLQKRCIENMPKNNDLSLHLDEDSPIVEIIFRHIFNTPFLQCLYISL
Compound `Clc1ccc(C(c2ccc(Cl)cc2)c2ccc[nH]2)cc1` had a pEC50 of less than 5.30.

`Clc1ccc(C(c2ccc(Cl)cc2)c2ccccn2)cc1` had a pEC50 of less than 5.30.

Compound `OC(c1ccc(Cl)cc1)(c1ccc(Cl)cc1)c1ccccn1` had a pEC50 of less than 5.30.

`Clc1ccc(C(c2ccc(Cl)cc2)n2nccn2)cc1` gave a pEC50 of less than 5.30.

As to `OC(c1ccc(Cl)cc1)(c1ccc(Cl)cc1)c1cncs1`, the pEC50 was 8.02.

`Clc1ccc(C(c2ccc(Cl)cc2)n2cccn2)cc1` gave a pEC50 of less than 5.70.

With `Clc1ccc(C(c2ccc(Cl)cc2)N2CCCCC2)cc1`, the pEC50 was less than 5.30.

`OC(c1ccc(Cl)cc1)(c1ccc(Cl)cc1)c1nnn[nH]1` gave a pEC50 of less than 5.30.

The compound `OC(c1ccc(Cl)cc1)(c1ccc(Cl)cc1)C1CCCNC1` (stereo not given) had a pEC50 of less than 5.30.

With `OC(c1ccccc1)(c1cccnc1)c1ccc(Cl)cc1Cl` (stereo not given), the pEC50 was less than 5.70.

In turn, `Clc1ccc(C(c2ccc(Cl)cc2)N2CCCC2)cc1` showed a pEC50 of less than 5.30.

In turn, `OC(c1ccc(Cl)cc1)(c1cccnc1)c1ccccc1Cl` (stereo not given) gave a pEC50 of less than 5.70.

Turning to `COc1ccc(C(O)(c2ccc(OC)cc2)c2cccnc2)cc1`, the pEC50 is less than 5.70.

Turning to `OC(c1ccccc1)(c1ccc(Cl)cc1)c1cccnc1` (stereo not given), the pEC50 was less than 5.70.

As for `Clc1ccc(C(c2ccc(Cl)cc2)(c2cncs2)n2ccnc2)cc1`, the negative logarithm of the EC50 (pEC50) was 7.77.

These data come from ChEMBL document CHEMBL1124961, “Estrogen synthetase inhibitors. 2. Comparison of the in vitro aromatase inhibitory activity for a variety of nitrogen heterocycles substituted with diarylmethane or diarylmethanol groups” (J Med Chem, 1990).
